Reference: patent US10795272B2, “Triphenylamine derivative, and charge transport material and electrophotographic photoreceptor using the same” (TAKASAGO INTERNATIONAL CORPORATION, priority 2016, dated 2020)

Columns and labels:
[1] = Charge carrier mobility of charge transport layer, Time-of-Flight method; details: 25° C. and 25 V/μm; charge transport layer approx. 18 μm, 15 parts compound and 15 parts polycarbonate resin TS-2020
Method: In 85 parts by weight of tetrahydrofuran, 15 parts by weight of a polycarbonate resin “TS-2020” (manufactured by Teijin Chemicals Ltd.) as a binder resin and 15 parts by weight of Compound (1-1) obtained in Example 1 were mixed and dissolved. The solution was applied onto a sheet, which had been prepared by vapor deposition of aluminum onto a polyethylene phthalate (PET) film, with a doctor blade, followed by drying at 80° C. for 3 hours, to form a charge transport layer (thickness: approximately 18 μm).
A translucent gold electrode was vapor deposited onto the charge transport layer, and the charge carrier mobility was measured. The carrier mobility was measured by the Time-of-Flight method (Hiroaki Tanaka, Yasuhiro Yamaguchi, Masaaki Yokoyama: DENSHI SHASHIN GAKKAISHI (Electrophotography), 29, 366(1990)) using a nitrogen gas laser with a pulsed half width of 0.9 sec and a wavelength of 337 nm as a light source.
In the same manner as in Example 7, charge transport layers were formed by using Compound (1-7) obtained in Example 3, Compound (1-9) obtained in Example 4, and Compound (1-17) obtained in Example 6, and the charge carrier mobility was measured.
In the same manner as in Example 7, charge transport layers were formed by using Comparative Compound (1) or Comparative Compound (2), and the charge carrier mobility was measured.

[2] = Photoreceptor characteristics of multilayer electrophotographic photoreceptor, static method (EPA-8300A); details: for E1/2 (half decay exposure) / E1/6 / Vr (surface residual potential): 0.2 μW laser light at 780 nm; for E1/2 (half decay exposure): exposure to reduce Vi by half; for E1/6: exposure to reduce Vi to 1/6; for V0 (surface potential): after corona discharge at −6 kv, charge transport layer 8 parts compound, 12 parts Iupilon Z-200; for Vr (surface residual potential): after irradiation for 5 seconds; for L/D (dark decay retention, Vi/V0): dark place for 5 seconds; for V1 (surface potential after dark hold): held in a dark place for 5 seconds
Method: A solution prepared by dissolving 0.375 parts by weight of a polyamide resin “FINE RESIN FR-104” (manufactured by Namariichi Co., Ltd.) in methanol and adjusting the total to 25 parts by weight was applied onto an aluminum plate and dried at 105° C. for 1 hour, to form an underlayer.
To a binder solution obtained by dissolving 15 parts by weight of a butyral resin “S-LEC BH-3” (manufactured by Sekisui Chemical Co., Ltd.) in 750 parts by weight of cyclohexanone, 22.5 parts by weight of phthalocyanine “Fastogen Blue 8120BS” (manufactured by Dainippon Ink and Chemicals, Incorporated) was added, and dispersed by using a vibration mill together with glass beads for 4 days. The dispersion was applied onto the underlayer and dried at 105° C. for 1 hour, to form a charge generation layer.
12 parts by weight of a polycarbonate resin “Iupilon Z-200” (manufactured by Mitsubishi Engineering-Plastics Corporation) as a binder resin and 8 parts by weight of Compound (1-1) obtained in Example 1 were mixed and dissolved in tetrahydrofuran with which the total was adjusted to 100 parts by weight. The solution was applied onto the charge generation layer with a doctor blade, and dried at 80° C. for 2 hours, to form a charge transport layer. A functionally-separated multilayer type electrophotographic photoreceptor was obtained by using the obtained charge generation layer and charge transport layer.
The photoreceptor characteristics of the thus obtained electrophotographic photoreceptor were measured by using an electrostatic recording tester “EPA-8300A” (manufactured by Kawaguchi Electric Works.) by the static method. Specifically, the electrophotographic photoreceptor was charged by performing corona discharge at −6 kv, and the surface potential V0 (Unit: −v) was measured. The electrophotographic photoreceptor was held in a dark place for 5 seconds (surface potential Vi (Unit: −v)) and dark decay retention L/D(Vi/V0 (Unit: %)) was determined. After that, the electrophotographic photoreceptor was irradiated with 0.2 μW laser light at 780 nm to determine the half decay exposure E1/2 (mJ/cm^2), which was the amount of light exposure necessary to reduce the surface potential Vi by half, and the E1/6 (mJ/cm^2), which was the amount of light exposure necessary to reduce the surface potential Vi to ⅙, and then the surface residual potential Vr (Unit: −v) was determined after irradiation for 5 seconds.
Electrophotographic photoreceptors were prepared and the photoreceptor characteristics thereof were measured in the same manner as in Example 11, except that charge transport layers were prepared by using Comparative Compound (3) (manufactured by Takasago International Corporation, “CTC-191”) or Comparative Compound (4) (manufactured by Takasago International Corporation, “CT-4”).

Row | SMILES | Charge carrier mobility [1] | E1/2 (half decay exposure) [2] | E1/6 [2] | V0 (surface potential) [2] | Vr (surface residual potential) [2] | L/D (dark decay retention, Vi/V0) [2] | V1 (surface potential after dark hold) [2]
1 | Cc1ccc(C(=C/C=C/c2ccc(/C=C/c3ccc(N(c4ccc(/C=C/c5ccc(/C=C/c6ccc(N(c7ccc(/C=C/c8ccc(/C=C/C=C(c9ccc(C)cc9)c9ccc(C)cc9)cc8)cc7)c7ccc(C)cc7C)cc6)cc5)cc4)c4ccc(C)cc4C)cc3)cc2)c2ccc(C)cc2)cc1 [Compound (1-17)] | 11.8 × 10^−5 cm^2/Vs | 0.04 mJ/cm^2 | 0.10 mJ/cm^2 | 423 −V | 50 −V | 98% | 416 −V
2 | Cc1ccc(N(c2ccc(C)cc2)c2ccc(C=CC=C(c3ccccc3)c3ccccc3)cc2)cc1 [Comparative Compound (4), reference compound] |  | 0.06 mJ/cm^2 | 0.16 mJ/cm^2 | 489 −V | 123 −V | 99% | 484 −V
3 | Cc1ccc(N(c2ccc(/C=C/c3ccc(/C=C/C=C(c4ccccc4)c4ccccc4)cc3)cc2)c2ccc(/C=C/c3ccc(/C=C/c4ccc(N(c5ccc(C)cc5)c5ccc(/C=C/c6ccc(/C=C/C=C(c7ccccc7)c7ccccc7)cc6)cc5)cc4)cc3)cc2)cc1 [Compound (1-1)] | 12.8 × 10^−5 cm^2/Vs | 0.05 mJ/cm^2 | 0.13 mJ/cm^2 | 443 −V | 67 −V | 98% | 434 −V
4 | Cc1cc(N(Cc2ccccc2)Cc2ccccc2)ccc1/C=N/N(c1ccccc1)c1ccccc1 [Comparative Compound (3), reference compound] |  | 0.07 mJ/cm^2 | 0.16 mJ/cm^2 | 485 −V | 144 −V | 99% | 479 −V
5 | Cc1ccc(N(c2ccc(/C=C/c3ccc(/C=C/C=C(c4ccccc4)c4ccccc4)cc3)cc2)c2ccc(/C=C/c3ccc(/C=C/c4ccc(N(c5ccc(/C=C/c6ccc(/C=C/C=C(c7ccccc7)c7ccccc7)cc6)cc5)c5ccc(C)cc5C)cc4)cc3)cc2)c(C)c1 [Compound (1-7)] | 10.8 × 10^−5 cm^2/Vs |  |  |  |  |  | 
6 | COc1ccc(N(c2ccc(/C=C/c3ccc(/C=C/C=C(c4ccccc4)c4ccccc4)cc3)cc2)c2ccc(/C=C/c3ccc(/C=C/c4ccc(N(c5ccc(/C=C/c6ccc(/C=C/C=C(c7ccccc7)c7ccccc7)cc6)cc5)c5ccc(OC)cc5)cc4)cc3)cc2)cc1 [Compound (1-9)] | 16.0 × 10^−5 cm^2/Vs | 0.05 mJ/cm^2 | 0.12 mJ/cm^2 | 419 −V | 56 −V | 98% | 410 −V
7 | Cc1ccc(N(c2ccc(C)cc2)c2ccc(C)cc2)cc1 [Comparative Compound (2), reference compound] | 0.7 × 10^−5 cm^2/Vs |  |  |  |  |  | 
